Test results taken from PMC7529252.

Amino acid sequences for entries named in this document (tags omitted). A change or cut given only in a name is not applied to a line headed by its entry.
UniProt Q9W0F4: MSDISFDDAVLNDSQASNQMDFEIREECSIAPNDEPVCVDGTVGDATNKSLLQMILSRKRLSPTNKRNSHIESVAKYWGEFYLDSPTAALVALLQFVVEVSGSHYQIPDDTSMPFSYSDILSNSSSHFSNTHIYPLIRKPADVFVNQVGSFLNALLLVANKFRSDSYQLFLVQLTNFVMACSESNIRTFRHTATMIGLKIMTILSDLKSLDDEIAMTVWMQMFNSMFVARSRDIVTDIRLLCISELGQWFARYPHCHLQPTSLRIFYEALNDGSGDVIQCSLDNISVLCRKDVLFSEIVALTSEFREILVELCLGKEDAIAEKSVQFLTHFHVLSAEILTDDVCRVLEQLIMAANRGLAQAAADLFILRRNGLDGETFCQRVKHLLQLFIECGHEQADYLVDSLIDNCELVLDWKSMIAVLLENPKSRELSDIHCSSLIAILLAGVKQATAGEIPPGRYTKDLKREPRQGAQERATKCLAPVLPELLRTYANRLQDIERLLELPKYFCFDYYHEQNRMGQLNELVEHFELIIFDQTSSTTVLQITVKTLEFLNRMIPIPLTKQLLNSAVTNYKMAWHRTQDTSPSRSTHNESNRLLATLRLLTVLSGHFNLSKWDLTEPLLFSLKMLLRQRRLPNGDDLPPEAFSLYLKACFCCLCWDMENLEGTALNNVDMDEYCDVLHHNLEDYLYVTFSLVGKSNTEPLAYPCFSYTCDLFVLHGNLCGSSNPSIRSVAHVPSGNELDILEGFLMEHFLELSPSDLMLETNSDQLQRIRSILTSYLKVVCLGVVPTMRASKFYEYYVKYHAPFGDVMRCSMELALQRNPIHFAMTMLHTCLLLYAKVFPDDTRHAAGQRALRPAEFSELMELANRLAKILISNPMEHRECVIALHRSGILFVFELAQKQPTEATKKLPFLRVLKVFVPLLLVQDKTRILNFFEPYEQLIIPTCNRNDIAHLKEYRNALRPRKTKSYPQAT
UniProt Q7JQU5: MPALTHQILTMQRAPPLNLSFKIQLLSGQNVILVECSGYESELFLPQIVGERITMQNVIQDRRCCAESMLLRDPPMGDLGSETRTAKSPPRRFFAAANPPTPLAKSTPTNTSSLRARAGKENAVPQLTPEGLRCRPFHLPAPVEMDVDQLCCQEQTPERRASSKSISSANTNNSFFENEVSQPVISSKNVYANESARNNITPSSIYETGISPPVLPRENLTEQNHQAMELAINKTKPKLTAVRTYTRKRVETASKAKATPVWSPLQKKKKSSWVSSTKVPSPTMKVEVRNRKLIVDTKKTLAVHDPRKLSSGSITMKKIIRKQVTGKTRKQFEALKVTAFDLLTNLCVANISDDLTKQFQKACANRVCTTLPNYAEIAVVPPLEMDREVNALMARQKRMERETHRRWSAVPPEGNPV

Experiments:
[1] = target: SNM-EGFP (Drosophila melanogaster) (UniProt Q9W0F4); assay: affinity purification with mass spectrometry; EGFP-tagged bait captured on uMACS anti-GFP beads from cleared homogenates of 6000-8000 mass-isolated testes of late larvae and early pupae; lysis buffer 20 mM Tris-HCl pH 7.5, 150 mM NaCl, 2 mM MgCl2, 0.1% NP-40, 5% glycerol, 1 mM DTT, 50 U/ml …; 4 C; four replicates for each genotype; EGFP as control; MS/MS of co-purified proteins
[2] = target: MNM-EGFP (Drosophila melanogaster); assay: as above

| Molecule | binding [1] | binding [2] |
| --- | --- | --- |
| UNO (endogenous) (from UniProt Q7JQU5) | binds | – |
| TEF (endogenous) (protein, UniProt Q7K4M4 1-649) MSKFLDMLSGSQCVSLEKCGDVVVSTNDCMIALYCHFCRDLFTQLPEFLRHLQSNHSDVLHFTKEHNVYSVEELLSGEQGKAHEDAQSAGHNSSSGDSSSLMNSEDSRAIEGSEDNSDNSPMKPEQIGKQSEINLLAEVTNILLQTNDKELKPENGVFNRPRKKANNESSSLKICDLKSHTIARTSRKRMSMVKNRILRVLDSDLSAKLEIKPPEPNSKLSITEPIQEDNIPGTCFDTPTKPIPSSSQLSVRKSSLTEANQICTKYAEKKTAPTMPKLLNCVPKPILTSQQAHTNAEISEINETYHLAASQVTKTTKTFPVKITQIDILQPVKLPKTLITPINEEGVSDQVENSTNNINNAQSLPKENTKKFFKKRSELGIKAQGSPNKFFKIIKSKANPIIVKRVQTTSAKASTNKIQIRSNDKTNCFASEFNSTKIRKLKMENCVDLKSEDPCANTNTRLNKLATISSCEILKAVGLPAITDNPIEDTLLPDELETIRKKADQFIKIYRKYDSIWNYRKICPPAKPDFISQQIFALTREVNKTMLCNLANSDIKGIINQISVWHYNIYTQYIDLDTISENARYTLKLFSFLPVSFAYFCKCCDDIFILKKEYLKHLISHQVRFQCTKCIKVFKYKGYYEKHLRNAHS | – | binds |

Results are given in words; binding and its absence hold for the method and conditions named. Binding seen in cells or lysates may run through a third protein. A yes stands for co-enrichment or nearness to the bait. Other partners may have been found.
